In the supplement of paper PMC10849652:
This is one part of the list.

Protein sequences, listed by entry. Tags and fused reporters are not part of them. Lines headed by an entry give the natural chain unless they say otherwise; changes in a name come on top.
UniProt Q13137: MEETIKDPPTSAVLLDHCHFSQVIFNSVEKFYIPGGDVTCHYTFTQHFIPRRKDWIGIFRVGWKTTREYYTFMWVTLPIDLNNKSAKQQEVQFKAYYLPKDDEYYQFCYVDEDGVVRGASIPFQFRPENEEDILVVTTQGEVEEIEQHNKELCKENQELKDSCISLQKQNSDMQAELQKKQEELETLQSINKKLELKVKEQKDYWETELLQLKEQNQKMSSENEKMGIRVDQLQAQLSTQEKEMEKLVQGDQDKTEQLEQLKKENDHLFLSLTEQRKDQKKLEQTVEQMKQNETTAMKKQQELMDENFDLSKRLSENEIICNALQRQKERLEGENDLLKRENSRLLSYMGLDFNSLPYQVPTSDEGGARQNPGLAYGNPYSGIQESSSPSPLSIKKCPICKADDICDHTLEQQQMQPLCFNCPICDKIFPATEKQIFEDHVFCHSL
UniProt Q9H425: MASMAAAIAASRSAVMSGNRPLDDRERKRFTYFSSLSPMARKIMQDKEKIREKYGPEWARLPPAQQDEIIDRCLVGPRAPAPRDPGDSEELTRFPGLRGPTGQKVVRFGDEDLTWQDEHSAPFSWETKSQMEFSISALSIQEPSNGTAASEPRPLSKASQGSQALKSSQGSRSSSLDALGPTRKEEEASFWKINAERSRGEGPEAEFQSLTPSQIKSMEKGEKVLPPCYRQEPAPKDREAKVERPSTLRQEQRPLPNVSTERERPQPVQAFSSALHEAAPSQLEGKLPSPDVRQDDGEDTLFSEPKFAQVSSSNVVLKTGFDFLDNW
UniProt Q5T5Y3: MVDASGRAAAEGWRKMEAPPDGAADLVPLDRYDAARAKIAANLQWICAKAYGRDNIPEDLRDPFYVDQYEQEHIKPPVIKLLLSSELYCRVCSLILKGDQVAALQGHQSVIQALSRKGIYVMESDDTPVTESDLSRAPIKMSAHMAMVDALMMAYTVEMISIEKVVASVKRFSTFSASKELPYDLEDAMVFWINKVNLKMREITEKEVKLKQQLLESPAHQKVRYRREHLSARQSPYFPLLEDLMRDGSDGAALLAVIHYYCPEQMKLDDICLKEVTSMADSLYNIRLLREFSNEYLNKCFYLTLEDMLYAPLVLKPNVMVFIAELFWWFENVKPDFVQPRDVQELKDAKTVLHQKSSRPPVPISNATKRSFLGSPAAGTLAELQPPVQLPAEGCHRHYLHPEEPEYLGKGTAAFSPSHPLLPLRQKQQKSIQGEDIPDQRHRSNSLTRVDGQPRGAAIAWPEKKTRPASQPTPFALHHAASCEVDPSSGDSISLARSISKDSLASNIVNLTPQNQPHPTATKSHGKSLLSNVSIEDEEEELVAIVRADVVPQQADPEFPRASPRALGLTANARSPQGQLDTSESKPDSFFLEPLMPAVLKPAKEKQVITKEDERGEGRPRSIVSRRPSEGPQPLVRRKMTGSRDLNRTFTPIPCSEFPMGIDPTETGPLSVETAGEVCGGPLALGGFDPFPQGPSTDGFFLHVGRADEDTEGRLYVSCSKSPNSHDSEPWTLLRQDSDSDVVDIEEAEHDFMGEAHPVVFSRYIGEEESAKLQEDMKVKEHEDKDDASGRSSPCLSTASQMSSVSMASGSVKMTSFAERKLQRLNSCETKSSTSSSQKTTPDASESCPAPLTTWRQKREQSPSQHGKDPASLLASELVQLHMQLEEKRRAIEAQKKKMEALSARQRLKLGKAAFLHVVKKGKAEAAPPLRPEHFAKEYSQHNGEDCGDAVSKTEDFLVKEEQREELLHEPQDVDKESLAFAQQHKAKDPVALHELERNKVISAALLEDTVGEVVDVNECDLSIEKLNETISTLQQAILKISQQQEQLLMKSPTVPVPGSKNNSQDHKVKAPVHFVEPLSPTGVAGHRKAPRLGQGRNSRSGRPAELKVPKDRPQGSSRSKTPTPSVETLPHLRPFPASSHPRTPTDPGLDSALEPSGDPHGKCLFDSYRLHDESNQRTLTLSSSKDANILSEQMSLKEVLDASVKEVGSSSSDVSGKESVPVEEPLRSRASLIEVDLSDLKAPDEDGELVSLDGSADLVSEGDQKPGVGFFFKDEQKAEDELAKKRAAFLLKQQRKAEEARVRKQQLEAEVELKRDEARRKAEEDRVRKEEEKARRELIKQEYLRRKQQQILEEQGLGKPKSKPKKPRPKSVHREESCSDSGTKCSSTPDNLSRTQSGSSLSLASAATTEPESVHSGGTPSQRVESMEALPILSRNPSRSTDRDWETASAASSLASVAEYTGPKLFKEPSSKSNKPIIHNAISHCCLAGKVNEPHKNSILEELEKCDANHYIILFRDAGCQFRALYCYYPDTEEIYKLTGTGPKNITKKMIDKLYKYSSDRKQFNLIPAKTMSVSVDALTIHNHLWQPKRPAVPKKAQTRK
UniProt Q9BVC5: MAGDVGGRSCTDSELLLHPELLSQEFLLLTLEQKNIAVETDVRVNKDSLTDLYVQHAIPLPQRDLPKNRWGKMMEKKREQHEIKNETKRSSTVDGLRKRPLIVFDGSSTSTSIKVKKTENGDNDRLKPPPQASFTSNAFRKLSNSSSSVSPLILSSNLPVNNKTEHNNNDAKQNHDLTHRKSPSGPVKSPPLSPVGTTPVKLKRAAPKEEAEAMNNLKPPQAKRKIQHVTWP
UniProt Q9UFG5: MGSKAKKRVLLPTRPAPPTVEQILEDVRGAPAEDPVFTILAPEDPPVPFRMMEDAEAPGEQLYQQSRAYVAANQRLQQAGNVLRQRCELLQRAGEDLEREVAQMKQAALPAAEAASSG
UniProt A6NDU8: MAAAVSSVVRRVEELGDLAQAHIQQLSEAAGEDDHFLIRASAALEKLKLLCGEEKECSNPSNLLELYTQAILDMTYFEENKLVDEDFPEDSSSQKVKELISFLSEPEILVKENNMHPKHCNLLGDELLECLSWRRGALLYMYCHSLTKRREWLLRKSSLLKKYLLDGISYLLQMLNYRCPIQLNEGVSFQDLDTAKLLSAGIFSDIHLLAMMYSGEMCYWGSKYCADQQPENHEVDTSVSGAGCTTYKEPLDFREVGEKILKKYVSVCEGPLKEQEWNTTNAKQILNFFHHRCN
UniProt Q9H7E9: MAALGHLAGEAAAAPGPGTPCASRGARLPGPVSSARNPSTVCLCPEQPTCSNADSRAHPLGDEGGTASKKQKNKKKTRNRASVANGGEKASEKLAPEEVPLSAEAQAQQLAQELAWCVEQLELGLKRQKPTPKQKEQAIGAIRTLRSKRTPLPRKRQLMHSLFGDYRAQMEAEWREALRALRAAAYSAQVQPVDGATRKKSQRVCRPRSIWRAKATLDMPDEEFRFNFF
UniProt Q5BKX5: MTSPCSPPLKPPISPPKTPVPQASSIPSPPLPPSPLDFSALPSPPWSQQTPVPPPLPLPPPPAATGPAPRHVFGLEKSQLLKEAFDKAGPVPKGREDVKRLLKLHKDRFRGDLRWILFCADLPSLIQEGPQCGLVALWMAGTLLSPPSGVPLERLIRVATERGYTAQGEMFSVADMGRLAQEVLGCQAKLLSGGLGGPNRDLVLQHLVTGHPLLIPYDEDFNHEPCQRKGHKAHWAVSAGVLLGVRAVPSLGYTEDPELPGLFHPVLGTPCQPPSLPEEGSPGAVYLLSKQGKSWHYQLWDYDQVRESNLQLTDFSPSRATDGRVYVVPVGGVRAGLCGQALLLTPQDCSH
UniProt Q9H3H3: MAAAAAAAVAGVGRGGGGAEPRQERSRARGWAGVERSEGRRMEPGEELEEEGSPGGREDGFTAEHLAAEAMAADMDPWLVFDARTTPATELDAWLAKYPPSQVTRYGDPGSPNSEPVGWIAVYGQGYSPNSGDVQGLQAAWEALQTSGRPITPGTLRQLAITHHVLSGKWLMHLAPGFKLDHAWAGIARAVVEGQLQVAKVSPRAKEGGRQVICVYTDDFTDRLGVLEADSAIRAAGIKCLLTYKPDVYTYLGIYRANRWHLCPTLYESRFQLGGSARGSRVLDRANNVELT
UniProt Q9H0W9: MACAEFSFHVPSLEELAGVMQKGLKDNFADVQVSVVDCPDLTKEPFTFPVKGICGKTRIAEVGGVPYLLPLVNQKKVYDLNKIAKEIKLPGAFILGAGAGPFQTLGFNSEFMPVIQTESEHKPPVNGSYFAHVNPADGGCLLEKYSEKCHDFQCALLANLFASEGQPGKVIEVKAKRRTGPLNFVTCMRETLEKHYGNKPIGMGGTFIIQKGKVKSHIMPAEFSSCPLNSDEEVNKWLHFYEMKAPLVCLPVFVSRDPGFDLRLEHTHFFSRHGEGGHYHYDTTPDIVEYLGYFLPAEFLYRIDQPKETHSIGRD
UniProt Q96GQ5: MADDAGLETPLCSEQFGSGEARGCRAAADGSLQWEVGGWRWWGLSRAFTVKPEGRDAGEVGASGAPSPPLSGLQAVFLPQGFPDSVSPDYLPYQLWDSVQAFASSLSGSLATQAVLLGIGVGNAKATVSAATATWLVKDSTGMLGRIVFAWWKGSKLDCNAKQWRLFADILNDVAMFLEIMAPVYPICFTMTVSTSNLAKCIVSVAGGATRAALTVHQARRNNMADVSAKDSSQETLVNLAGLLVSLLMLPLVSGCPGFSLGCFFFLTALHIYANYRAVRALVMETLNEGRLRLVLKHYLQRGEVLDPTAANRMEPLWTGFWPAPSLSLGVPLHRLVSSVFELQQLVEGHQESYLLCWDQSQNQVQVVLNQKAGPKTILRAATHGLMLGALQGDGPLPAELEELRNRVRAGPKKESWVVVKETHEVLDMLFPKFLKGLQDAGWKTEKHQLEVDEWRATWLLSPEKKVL
UniProt Q6P1S2: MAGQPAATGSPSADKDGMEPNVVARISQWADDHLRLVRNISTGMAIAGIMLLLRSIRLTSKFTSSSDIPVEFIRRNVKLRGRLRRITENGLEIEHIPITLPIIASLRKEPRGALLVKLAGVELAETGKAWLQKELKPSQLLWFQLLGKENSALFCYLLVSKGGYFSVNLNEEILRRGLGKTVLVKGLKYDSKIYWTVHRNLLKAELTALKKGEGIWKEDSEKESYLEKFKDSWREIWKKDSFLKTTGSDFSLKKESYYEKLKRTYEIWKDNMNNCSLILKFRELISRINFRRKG
UniProt Q5T6V5: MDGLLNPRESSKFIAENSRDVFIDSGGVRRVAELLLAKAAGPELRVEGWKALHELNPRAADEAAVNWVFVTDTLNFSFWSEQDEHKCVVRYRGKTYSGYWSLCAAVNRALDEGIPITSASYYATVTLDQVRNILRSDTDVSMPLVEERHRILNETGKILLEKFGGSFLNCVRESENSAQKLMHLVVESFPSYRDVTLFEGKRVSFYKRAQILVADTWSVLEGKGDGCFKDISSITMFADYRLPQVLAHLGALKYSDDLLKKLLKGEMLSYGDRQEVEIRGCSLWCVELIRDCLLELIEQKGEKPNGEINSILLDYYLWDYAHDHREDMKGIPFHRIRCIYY
UniProt Q7L1Q6: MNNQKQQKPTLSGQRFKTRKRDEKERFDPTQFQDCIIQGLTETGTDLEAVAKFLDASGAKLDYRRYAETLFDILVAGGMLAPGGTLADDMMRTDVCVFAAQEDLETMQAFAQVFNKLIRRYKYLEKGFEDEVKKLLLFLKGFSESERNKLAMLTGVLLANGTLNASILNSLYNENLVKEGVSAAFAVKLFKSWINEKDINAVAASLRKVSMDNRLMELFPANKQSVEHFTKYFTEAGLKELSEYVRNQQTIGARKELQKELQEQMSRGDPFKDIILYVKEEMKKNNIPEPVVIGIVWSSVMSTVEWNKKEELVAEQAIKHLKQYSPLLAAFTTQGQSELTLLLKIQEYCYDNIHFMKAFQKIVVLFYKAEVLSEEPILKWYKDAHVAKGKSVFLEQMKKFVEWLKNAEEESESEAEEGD
UniProt P07384: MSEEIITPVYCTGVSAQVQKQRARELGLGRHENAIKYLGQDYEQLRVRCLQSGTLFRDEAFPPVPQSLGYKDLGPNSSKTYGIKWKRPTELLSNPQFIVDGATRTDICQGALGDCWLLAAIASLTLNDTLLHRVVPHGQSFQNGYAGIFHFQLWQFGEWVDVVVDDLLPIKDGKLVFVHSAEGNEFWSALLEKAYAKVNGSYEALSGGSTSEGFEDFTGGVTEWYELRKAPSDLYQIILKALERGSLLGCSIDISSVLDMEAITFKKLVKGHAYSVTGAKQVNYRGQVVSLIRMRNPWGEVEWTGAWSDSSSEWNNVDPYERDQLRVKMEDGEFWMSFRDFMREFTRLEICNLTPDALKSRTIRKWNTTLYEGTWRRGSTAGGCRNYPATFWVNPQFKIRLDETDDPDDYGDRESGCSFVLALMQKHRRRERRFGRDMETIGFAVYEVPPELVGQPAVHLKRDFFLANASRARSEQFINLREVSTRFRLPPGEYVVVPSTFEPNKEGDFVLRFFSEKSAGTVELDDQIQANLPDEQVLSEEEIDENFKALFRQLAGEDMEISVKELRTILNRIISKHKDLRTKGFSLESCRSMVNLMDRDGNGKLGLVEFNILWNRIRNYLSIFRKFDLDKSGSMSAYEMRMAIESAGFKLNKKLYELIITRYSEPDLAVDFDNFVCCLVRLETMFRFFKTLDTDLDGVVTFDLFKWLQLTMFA

Key:
Experiment in all cases: log2 fold change, soluble protein after heating vs DMSO (PISA); higher = thermal stabilisation; K562 cells, 10 uM, 30 min; active = over 0.2 and 3.5 SD of the protein, either way, in both replicates (recomputed)
[1] = compound: CC1=C(C=C(C=C1)NC(=O)C2=CC(=CC=C2)C(C)(C)C#N)NC3=CC4=C(C=C3)N=CN(C4=O)C
How it was run: (§1)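 Quantification of soluble protein used TMTpro 16plex LC-MS/MS, with channel sums equalised. Samples were the supernatant after 21,000xg for 90 min of pooled aliquots from K562 cells (2×10^6 cells/mL) treated with 10 μM compound for 30 min, heated for 3 min over 48°C-58°C, and extracted in PBS with 0.5% NP-40 at 4°C. Values, from duplicates, describe thermal stability against control samples on a log2 fold-change scale.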

[2] = compound: CC1=C(C=C(C=C1)NC(=O)C2=CC(=CC=C2)N(C)C)NC(=O)C3=CC=C(C=C3)O
How it was run: as §1

[3] = compound: CC1=CC=C(C=C1)SC2=C3C=C(SC3=CN=C2)C(=O)N
How it was run: as §1

[4] = compound: CC1=NC(=CC=C1)C2=C(N=C(N2)C(C)(C)C)C3=CC4=NC=CN=C4C=C3
How it was run: as §1

[5] = compound: CCCCN(Cc1ccc(C(=O)NO)cc1)C(=O)Nc1ccccc1 [Nexturastat A]
How it was run: as §1

[6] = compound: CCCS(=O)(=O)Nc1ccc(F)c(C(=O)c2c[nH]c3ncc(-c4ccc(Cl)cc4)cc23)c1F [vemurafenib]
How it was run: as §1

[7] = compound: CCCS(=O)(=O)Nc1ccc(F)c(C(=O)c2c[nH]c3ncc(Cl)cc23)c1F
How it was run: as §1

[8] = compound: CCCc1cc(C)[nH]c(=O)c1CNC(=O)c1cc(-c2ccnc(N3CCN(C)CC3)c2)cc2c1cnn2C(C)C
How it was run: as §1

[9] = compound: CCN(CC)Cc1ccc2cc(COC(=O)Nc3ccc(C(=O)NO)cc3)ccc2c1 [givinostat]
How it was run: as §1

[10] = compound: CCN(CCCOc1ccc2c(Nc3cc(CC(=O)Nc4cccc(F)c4)[nH]n3)ncnc2c1)CCOP(=O)(O)O [barasertib]
How it was run: as §1

Measured: log2 fold change

CALCOCO2 isoform 4 (UniProt Q13137)
inactive: [1] -0.005 | [2] -0.008 | [3] 0.006 | [4] 0.012 | [5] 0.019 | [6] 0.012 | [7] -0.037 | [8] -0.052 | [9] 0 | [10] 0.022

CAPN2 (UniProt P17655)
inactive: [1] -0.029 | [2] -0.002 | [3] -0.05 | [4] 0.014 | [5] -0.02 | [6] -0.022 | [7] -0.032 | [8] -0.032 | [9] -0.026 | [10] -0.004

C1orf198 (UniProt Q9H425)
inactive: [1] 0.023 | [2] -0.025 | [3] 0.073 | [4] -0.005 | [5] 0.14 | [6] -0.023 | [7] -0.07 | [8] 0.023 | [9] -0.028 | [10] 0.047

BUB1B isoform 3 (UniProt O60566)
inactive: [1] 0.004 | [2] -0.031 | [3] 0.059 | [4] -0.014 | [5] 0.087 | [6] 0.058 | [7] 0.14 | [8] 0.043 | [9] 0.118 | [10] 0.034

CAMSAP1 isoform 3 (UniProt Q5T5Y3)
inactive: [1] 0.03 | [2] -0.009 | [3] -0.02 | [4] -0.101 | [5] 0.168 | [6] -0.274 | [7] 0.042 | [8] -0.19 | [9] 0.151 | [10] 0.077

BTAF1 (UniProt O14981)
inactive: [1] -0.033 | [2] 0.07 | [3] -0.035 | [4] 0.011 | [5] -0.064 | [6] -0.003 | [7] 0.041 | [8] -0.018 | [9] 0.009 | [10] 0.038

C2orf49 (UniProt Q9BVC5)
inactive: [1] -0.082 | [2] 0.006 | [3] -0.005 | [4] -0.046 | [5] 0.139 | [6] 0.002 | [7] -0.116 | [8] 0.175 | [9] 0.02 | [10] -0.03

C19orf25 (UniProt Q9UFG5)
inactive: [1] -0.101 | [2] -0.126 | [3] 0.012 | [4] -0.074 | [5] 0.064 | [6] 0 | [7] -0.014 | [8] 0.025 | [9] -0.033 | [10] -0.016

C5orf51 (UniProt A6NDU8)
inactive: [1] -0.047 | [2] -0.101 | [3] 0.007 | [4] -0.033 | [5] -0.042 | [6] -0.031 | [7] -0.075 | [8] 0.032 | [9] 0.017 | [10] 0.102

C8orf33 isoform 2 (UniProt Q9H7E9)
inactive: [1] 0.02 | [2] -0.275 | [3] -0.183 | [4] -0.364 | [5] 0.3 | [6] -0.139 | [7] 0.026 | [8] 0.221 | [10] -0.049

C19orf54 (UniProt Q5BKX5)
inactive: [1] 0.096 | [2] -0.053 | [3] 0.127 | [4] -0.104 | [5] -0.025 | [6] -0.118 | [7] 0.077 | [9] 0.044

CA8 (UniProt P35219)
inactive: [1] -0.024 | [2] -0.081 | [3] 0.041 | [4] 0.006 | [5] -0.058 | [6] 0.004 | [7] 0.02 | [8] -0.002 | [9] 0.077 | [10] 0.034

C11orf68 (UniProt Q9H3H3)
inactive: [1] -0.015 | [2] -0.011 | [3] 0.081 | [4] -0.011 | [5] 0 | [6] 0.049 | [7] 0.171 | [8] -0.028 | [9] -0.007 | [10] -0.017

C11orf54 (UniProt Q9H0W9)
inactive: [1] 0.049 | [2] 0.002 | [3] 0.139 | [4] 0.011 | [5] 0.06 | [6] 0.062 | [7] -0.02 | [8] -0.008 | [9] 0.001 | [10] -0.018

C20orf27 isoform 2 (UniProt Q9GZN8)
inactive: [1] -0.006 | [2] 0.009 | [3] 0.047 | [4] 0.054 | [5] 0.007 | [6] 0.013 | [7] 0.06 | [8] -0.055 | [9] 0.017 | [10] -0.075

C16orf58 (UniProt Q96GQ5)
inactive: [1] -0.04 | [2] 0.001 | [3] 0.021 | [4] 0.003 | [5] -0.049 | [6] -0.007 | [7] 0.005 | [8] -0.075 | [9] -0.012 | [10] -0.011

CAMKK2 (UniProt Q96RR4)
inactive: [1] 0.022 | [2] 0.024 | [3] -0.044 | [4] -0.009 | [5] 0.154 | [6] 0.037 | [7] -0.043 | [8] 0.277 | [9] -0.017 | [10] 0.058

CAB39L (UniProt Q9H9S4)
inactive: [1] -0.142 | [2] -0.008 | [3] 0.004 | [4] -0.043 | [5] 0.003 | [6] -0.013 | [7] -0.001 | [9] -0.025 | [10] 0.043

C3orf33 (UniProt Q6P1S2)
inactive: [1] 0.045 | [2] -0.045 | [3] -0.036 | [4] 0.089 | [5] 0.081 | [6] -0.038 | [7] 0.038 | [8] -0.114 | [9] 0.122 | [10] -0.074

Pulled one by one from the entries so far (two):
C3orf33 (UniProt Q6P1S2)
inactive: [1] 0.045 | [2] -0.045 | [3] -0.036 | [4] 0.089 | [5] 0.081 | [6] -0.038 | [7] 0.038 | [8] -0.114 | [9] 0.122 | [10] -0.074

C5orf51 (UniProt A6NDU8)
inactive: [1] -0.047 | [2] -0.101 | [3] 0.007 | [4] -0.033 | [5] -0.042 | [6] -0.031 | [7] -0.075 | [8] 0.032 | [9] 0.017 | [10] 0.102

(cont.)

CAPN7 (UniProt Q9Y6W3)
inactive: [1] 0.057 | [2] -0.039 | [3] 0.023 | [4] -0.002 | [5] 0 | [6] 0.009 | [7] 0.023 | [8] 0.013 | [9] 0.065 | [10] 0.108

C9orf64 (UniProt Q5T6V5)
inactive: [1] 0.014 | [2] -0.014 | [3] 0.029 | [4] 0.001 | [5] 0.029 | [6] -0.032 | [7] 0.079 | [8] -0.036 | [9] 0.064 | [10] 0.08

C5orf22 (UniProt Q49AR2)
inactive: [1] -0.018 | [2] -0.052 | [3] -0.006 | [4] 0.018 | [5] -0.026 | [6] -0.024 | [7] -0.007 | [8] 0.029 | [9] -0.085 | [10] 0.019

BZW1 isoform 3 (UniProt Q7L1Q6)
inactive: [1] 0.064 | [2] -0.014 | [3] 0.036 | [4] 0.038 | [5] 0.016 | [6] 0.107 | [7] 0.126 | [8] 0.105 | [9] 0.084 | [10] 0.06

CAPZA2 (UniProt P47755)
inactive: [1] 0.018 | [2] 0.022 | [3] 0.063 | [4] 0.069 | [5] -0.092 | [6] 0.006 | [7] 0.094 | [8] -0.065 | [9] -0.021 | [10] -0.002

CAPN1 (UniProt P07384)
inactive: [1] 0.01 | [2] 0.008 | [3] 0.016 | [4] 0 | [5] -0.077 | [6] 0.039 | [7] 0.007 | [8] -0.015 | [9] -0.023 | [10] -0.02

BTF3 (UniProt P20290)
inactive: [1] -0.009 | [2] 0.013 | [3] -0.026 | [4] 0.025 | [5] -0.042 | [6] 0.001 | [7] -0.008 | [8] 0.006 | [9] -0.004 | [10] 0.022
